Test results as given in US12605384B2, “Uses” (INTRA-CELLULAR THERAPIES, INC., priority 2018, dated 2026).
For some assays here: The name of at least one read-out is uncertain. For some assays here: At least one compound was matched to its structure with a doubt left.

How the values were obtained:
[1] = Plasma pharmacokinetics in heart failure patients; format: in vivo, human; conditions: single oral dose
Description: A further group was administered placebo.
Hemodynamic monitoring began 30-60 minutes prior to the pre-dose echocardiogram through to 5-6 hours post-dose.

myocyte cAMP = test: Whole cell cAMP in rabbit myocytes; format: cell-based; conditions: Fsk alone
Text: This is consistent with prior studies showing locally generated cAMP from β-AR and its modulation by PDE3 occur in local subcellular domains that are not easily detected in whole cell lysates32.

Row | SMILES | time of Cmax in plasma post-administration [1] | cAMP (myocyte cAMP)
1 | CN1C(=O)c2c(nn(Cc3ccc(-c4cccc(F)n4)cc3)c2Nc2ccccc2)N2C1=N[C@@H]1CCC[C@@H]12 [Compound 1, (6aR,9aS)-2-(4-(6-fluoropyridin-2-yl)benzyl)-5-methyl-3-(phenyl-amino)-5,6a,7,8,9,9a-hexahydrocyclopenta-[4,5]imidazo[1,2-a]pyrazolo[4,3-e]pyrimidin-4-(2H)-one monophosphate] | 90 to 120 min | –
2 | C=C[C@@]1(C)CC(=O)[C@]2(O)[C@@]3(C)[C@@H](O)CCC(C)(C)[C@@H]3[C@H](O)[C@H](OC(C)=O)[C@@]2(C)O1 [forskolin] | – | resulted in a rise in cAMP
